The values below are quoted from earlier work in US20130028974A1, “PHARMACEUTICAL FORMULATION IN THE FORM OF BILAYERED TABLETS COMPRISING HMG-COA REDUCTASE INHIBITOR AND IRBESARTAN” (HANMI SCIENCE CO., LTD, priority 2010, published 2013).

The conditions of this data set: crystalline form versus amorphous form.

With `CC(C)c1c(C(=O)Nc2ccccc2)c(-c2ccccc2)c(-c2ccc(F)cc2)n1CC[C@@H](O)C[C@@H](O)CC(=O)O` [crystalline form of atorvastatin, atorvastatin], the “Increase in Cmax (in vivo absorption rate)” value is recorded as roughly 50%.
